This experiment has as its system E18 rat cortical neuron-glia co-culture. The experiment is described as follows: total nuclei (DAPI) / Olig2+ nuclei (ratio); higher = more depletion of OPC/OL lineage cells. To be noted: treatment time: 8 days (DIV5-DIV13).

The structures appear in SMILES notation. ± gives the standard deviation of the averaged measurements. The list shows a part of the results. Part of the spread comes from offsets between plates or batches.

In the case of `C[C@@H]1C[C@H]2[C@@H]3C[C@H](F)C4=CC(=O)C(Cl)=C[C@]4(C)[C@@]3(F)[C@@H](O)C[C@]2(C)[C@@]1(O)C(=O)CO` [Halometasone hydrate], the total nuclei runs as follows: (1 µM) 4.18; (5 µM) 3.9.
Regarding `CC=CC(=O)N(CC)c1ccccc1C` [Crotamiton], the total nuclei (1 µM) stood at 3.8 and the total nuclei (5 µM) was above 40.
The matching figures for `CC(C)/N=c1\cc2n(-c3ccc(Cl)cc3)c3ccccc3nc-2cc1Nc1ccc(Cl)cc1` [Clofazimine]: 4.2 and 4.5.
The matching figures for `CC(C)Oc1ccc2c(=O)c(-c3ccccc3)coc2c1` [Ipriflavone]: 2.98 and 3.
For the compound `CN(C)CCCN1c2ccccc2CCc2ccc(Cl)cc21` [Clomipramine], the total nuclei came out at 3.33 (1 µM) and 3.3 (5 µM).
The matching figures for `CCCC(=O)O[C@]1(C(=O)COC(=O)CC)CC[C@H]2[C@@H]3CCC4=CC(=O)CC[C@]4(C)[C@H]3[C@@H](O)C[C@@]21C` [Hydrocortisone buteprate]: 2.77 and 2.9.
The matching figures for `CC(C)OC(=O)C(C)(C)Oc1ccc(C(=O)c2ccc(Cl)cc2)cc1` [Fenofibrate]: 3.81 and 8.
The matching figures for `COc1nc(C)nc(Cl)c1NC1=NCCN1` [Moxonidine]: 7.17 and 6.
On to `CC[C@H]1OC(=O)[C@H](C)[C@@H](O[C@H]2C[C@@](C)(OC)[C@@H](O)[C@H](C)O2)[C@H](C)[C@@H](O[C@@H]2O[C@H](C)C[C@H](N(C)C)[C@H]2O)[C@](C)(O)C[C@@H](C)C(=O)[C@H](C)[C@@H](O)[C@]1(C)O` [Erythromycin], for which the total nuclei reads like this: (1 µM) 4.25; (5 µM) above 40.
Turning to `COc1ccc2[nH]c([S+]([O-])Cc3ncc(C)c(OC)c3C)nc2c1` (configuration not stated) [Omeprazole], the total nuclei is, setting by setting: (1 µM) 2.82; (5 µM) 2.9.
The like results for `CC(=O)O[C@]1(C(C)=O)CC[C@H]2[C@@H]3C[C@H](C)C4=CC(=O)CC[C@]4(C)[C@H]3CC[C@@]21C` [Medroxyprogesterone acetate] were, in that order, 2.79 and 3.3.
As to `CCCc1nc(C(C)(C)O)c(C(=O)O)n1Cc1ccc(-c2ccccc2-c2nnn[nH]2)cc1` [Olmesartan], the total nuclei by setting is: (1 µM) 4.71; (5 µM) 4.2.
As for `CC(C)(C)NC(=O)[C@@H]1C[C@@H]2CCCC[C@@H]2CN1C[C@@H](O)[C@H](Cc1ccccc1)NC(=O)[C@H](CC(N)=O)NC(=O)c1ccc2ccccc2n1` [Saquinavir], the total nuclei by setting is: (1 µM) 2.64; (5 µM) 3.4.
The like results for `CN(Cc1cnc2nc(N)nc(N)c2n1)c1ccc(C(=O)N[C@@H](CCC(=O)O)C(=O)O)cc1` [Methotrexate] were, in that order, 23.4 and 27.7.
The matching figures for `Nc1nc(Cl)nc2c1ncn2[C@@H]1O[C@H](CO)[C@@H](O)[C@H]1O` [2-Chloroadenosine]: 2.62 and 2.7.
`O=C1[C@H](CC[C@H](O)c2ccc(F)cc2)[C@@H](c2ccc(O)cc2)N1c1ccc(F)cc1` [Ezetimibe]: the total nuclei reads like this: (1 µM) 4.59; (5 µM) 3.9.
In the case of `COc1ccc(CCN(C)CCCC(C#N)(c2ccc(OC)c(OC)c2)C(C)C)cc1OC` (configuration not stated) [Verapamil], the total nuclei (1 µM) is 5.62 and the total nuclei (5 µM) amounted to 5.2.
Turning to `O=[N+]([O-])c1cccc2cn[nH]c12` [7-Nitroindazole], the total nuclei by setting is: (1 µM) 2.85; (5 µM) 2.8.
The like results for `Cc1[nH]c(=O)c(C#N)cc1-c1ccncc1` [Milrinone] were, in that order, 2.92 and 3.3.
The matching figures for `CC(C)OC(=O)CCC/C=C\C[C@@H]1[C@@H](CC[C@@H](O)CCc2ccccc2)[C@H](O)C[C@@H]1O` [Latanoprost]: 2.95 and 3.1.
The matching figures for `C=C[C@H]1CN2CC[C@H]1C[C@H]2[C@H](O)c1ccnc2ccc(OC)cc12` [Quinine]: 3.69 and 3.4.
Regarding `COc1ccccc1N1CCN(CCCNc2cc(=O)n(C)c(=O)n2C)CC1` [Urapidil], the total nuclei by setting is: (1 µM) 3.56; (5 µM) 4.2.
The matching figures for `COc1ccccc1N1CCN(CC(O)COc2cccc3ccccc23)CC1` (configuration not stated) [Naftopidil]: 4.8 and 8.8.
For the compound `CO/N=C(\C(=O)N[C@@H]1C(=O)N2C(C(=O)O)=C(COC(N)=O)CS[C@H]12)c1ccco1` [Cefuroxime], the total nuclei runs as follows: (1 µM) 3.04; (5 µM) 3.1.
The like results for `CCN(CC)CC(=O)Nc1c(C)cccc1C` [Lidocaine] were, in that order, 4.69 and 4.9.
As to `CC(=O)O[C@@]12CO[C@@H]1C[C@H](O)[C@@]1(C)C(=O)[C@H](O)C3=C(C)[C@@H](OC(=O)[C@H](O)[C@@H](NC(=O)OC(C)(C)C)c4ccccc4)C[C@@](O)([C@@H](OC(=O)c4ccccc4)[C@H]21)C3(C)C` [Docetaxel], the total nuclei reads like this: (1 µM) 37.3; (5 µM) 38.1.
On to `O=C(O)/C=C/c1ccc(Cn2ccnc2)cc1` [Ozagrel], for which the total nuclei (1 µM) worked out at 3.06 and the total nuclei (5 µM) was 2.9.
The like results for `COc1cc(C(=O)NS(=O)(=O)c2ccccc2C)ccc1Cc1cn(C)c2ccc(NC(=O)OC3CCCC3)cc12` [Zafirlukast] were, in that order, 2.71 and 5.
As to `COc1cc(CNC(=O)CCCC/C=C\C(C)C)ccc1O` [Zucapsaicin], the total nuclei by setting is: (1 µM) 4.42; (5 µM) 12.3.
The matching figures for `CC(C)C(=O)Nc1ccc([N+](=O)[O-])c(C(F)(F)F)c1` [Flutamide]: 4.18 and 4.3.
The like results for `C#C[C@]1(O)CC[C@H]2[C@@H]3CCc4cc(OC)ccc4[C@H]3CC[C@@]21C` [Mestranol] were, in that order, 2.64 and 3.3.
With `COC(=O)CCc1ccc(OCC(O)CNC(C)C)cc1` (configuration not stated) [Esmolol], the total nuclei is, setting by setting: (1 µM) 2.9; (5 µM) 2.9.
As for `O=C(NCC1CCCCN1)c1cc(OCC(F)(F)F)ccc1OCC(F)(F)F` (configuration not stated) [Flecainide], the total nuclei is above 40 (1 µM) and 2.8 (5 µM).
The matching figures for `NCCc1ccc(O)c(O)c1` [Dopamine]: 3.2 and 2.9.
Consider `CCOC(=O)c1ncn2c1CN(C)C(=O)c1cc(F)ccc1-2` [Flumazenil], for which the total nuclei was 5.18 (1 µM) and 6.6 (5 µM).
The like results for `Nc1nc2c(ncn2COCCO)c(=O)[nH]1` [Acyclovir] were, in that order, 3.9 and 6.1.
Consider `O=C(O[C@H]1[C@H](Oc2ccccc2COC(=O)C2(O)C=CCCC2=O)O[C@H](CO)[C@@H](O)[C@@H]1O)c1ccccc1` (some centres not stated) [Tremulacin], for which the total nuclei amounted to 2.88 (1 µM) and 6.2 (5 µM).
The like results for `NC[C@H]1CC[C@H](C(=O)Oc2ccc(CCC(=O)O)cc2)CC1` [Cetraxate] were, in that order, 3.94 and 4.4.
On to `CCn1cc(C(=O)O)c(=O)c2ccc(C)nc21` [Nalidixic Acid], for which the total nuclei reads like this: (1 µM) 3.51; (5 µM) 3.9.
Turning to `CC1=C(CC(=O)O)c2cc(F)ccc2/C1=C\c1ccc([S+](C)[O-])cc1` (configuration not stated) [Sulindac], the total nuclei reads like this: (1 µM) 2.77; (5 µM) 2.8.
Turning to `CN(C)CCOC(c1ccc(Cl)cc1)c1ccccn1` (configuration not stated) [Carbinoxamine], the total nuclei (1 µM) is 2.85 and the total nuclei (5 µM) was 3.
The like results for `NS(=O)(=O)c1cc2c(cc1C(F)(F)F)NCNS2(=O)=O` [Hydroflumethiazide] were, in that order, 4.06 and 2.7.
The matching figures for `O=C1NC(=O)C(c2ccccc2)(c2ccccc2)N1` [Phenytoin]: 4.02 and 2.4.
The matching figures for `COC(=O)C[C@](O)(CCCC(C)(C)O)C(=O)O[C@@H]1C(OC)=C[C@]23CCCN2CCc2cc4c(cc2[C@H]13)OCO4` [Homoharringtonine]: above 40 and above 40.
Turning to `Cc1ncc([N+](=O)[O-])n1CC(C)O` (configuration not stated) [Secnidazole], the total nuclei turned out to be 3.42 (1 µM) and 3.5 (5 µM).
The like results for `CC(C[N+](C)(C)C)OC(N)=O` (configuration not stated) [Bethanechol] were, in that order, 4.21 and 4.2.
The matching figures for `CO[C@H]1/C=C/O[C@@]2(C)Oc3c(C)c(O)c4c(O)c(c(/C=N/N5CCN(C6CCCC6)CC5)c(O)c4c3C2=O)NC(=O)/C(C)=C\C=C\[C@H](C)[C@H](O)[C@@H](C)[C@@H](O)[C@@H](C)[C@H](OC(C)=O)[C@@H]1C` [Rifapentine]: 3.34 ± 0.72 and 5.05 ± 3.
The matching figures for `Cc1[nH]cnc1CN1CCc2c(c3ccccc3n2C)C1=O` [Alosetron]: 3.58 and 4.6.
As for `NC(=O)c1cccnc1` [Niacinamide], the total nuclei (1 µM) was 2.67 and the total nuclei (5 µM) was 2.8.
Regarding `O=C(N[C@H](CO)[C@H](O)c1ccc([N+](=O)[O-])cc1)C(Cl)Cl` [Chloramphenicol], the total nuclei (1 µM) is above 40 and the total nuclei (5 µM) is above 40.
Regarding `N[C@@H](Cc1cc(I)c(Oc2ccc(O)c(I)c2)c(I)c1)C(=O)O` [Triiodothyronine], the total nuclei (1 µM) stood at 3.34 and the total nuclei (5 µM) came to 4.4.
